# The campaign covered roughly 300,000 compounds. About 5,400 (1.8%) were called active. Inconclusive results, whose numbers are uncertain, are shown with a selection of clear calls. Calls come from the whole dose curve; tested in HEK293 cells. Potencies beside an inconclusive call are fits to weak or partial responses and may not hold up.
# Assay: qHTS for inhibitors of binding or entry into cells for Marburg Virus
# Details: Marburg virus pseudotyped entry inhibition, cell reporter; series mostly up to 37.8 µM
# Potency is the fitted concentration of half-maximal effect.
row,SMILES,Potency
1,O=C(Nc1ccc(Cl)cc1)NC1CCCCC1Cc1ccco1 (stereo not drawn),"inconclusive: 35.5 µM [inhibitor, single point]"
2,Cc1ccc(NC(=O)CCC(=O)NNC(=O)COc2ccccc2)cc1C,inactive
3,COc1cc2c(c(OC)c1OC)-c1ccc(O)c(=O)cc1C(NC(C)=O)CC2 (stereo not drawn),"inconclusive: 1 µM [inhibitor, full curve, poor fit]"
4,O=C(CNC(=S)N(Cc1ccccc1)Cc1cccnc1)NC1CC1,inactive
5,CCCCc1nnc(NC(=O)c2ccc(N3CCCC3=O)cc2)s1,inactive
6,COc1ccc(O[C@H]2C=C[C@@H](c3ccccc3)O[C@@H]2COC(=O)CC/C(C)=N/O[C@H](C)c2cn([C@@H]3COC[C@H]3O)nn2)cc1,"inconclusive: 0.0058 µM [inhibitor, full curve, poor fit]"
7,COc1cc(NC(=O)CCN2CCN(c3ccccc3F)CC2)cc(OC)c1,"inconclusive: 29.1 µM [inhibitor, single point]"
8,CCn1c(CSc2nc3ccccc3s2)nc2ccccc21,"inconclusive: 16.4 µM [inhibitor, single point]"
9,Cc1ccccc1N(C(=O)Cn1nnc(-c2cccs2)n1)C(C(=O)NCCC(C)C)c1ccco1 (stereo not drawn),"inconclusive: 15.8 µM [inhibitor, single point]"
10,FC(F)(F)c1cnc(-c2cnc(-c3cccnc3)nc2)c(Cl)c1,inactive
11,CC(C)c1ccc(OCc2ccc(C(=O)O)o2)cc1,active: 3.66 µM
12,COc1cc(C2NC(=S)NC(C)=C2C(=O)c2ccccc2)ccc1O (stereo not drawn),"inconclusive: 10 µM [activator, partial curve]"
13,Cc1ccc2nc(-c3cccc(S(=O)(=O)N(C)C)c3)cn2c1,"inconclusive: 14.1 µM [inhibitor, single point]"
14,COc1ccc(-n2cc(CN(C)C3CCOCC3)c(-c3cccc(F)c3)n2)cc1,"inconclusive: 35.5 µM [inhibitor, single point]"
15,Cc1ccc2nc(N(CCCN(C)C)C(=O)c3ccc4ncsc4c3)sc2c1,"inconclusive: 2 µM [inhibitor, partial curve, poor fit]"
16,O=C(COC(=O)c1cnccn1)c1ccc2c(c1)CCCC2,"inconclusive: 0.116 µM [inhibitor, full curve]"
17,COc1ccc(C)cc1NCc1ccc([N+](=O)[O-])cc1,inactive
18,O=C(c1ccccc1)c1cccc2ccccc12,inactive
19,Cc1ccc(NC(=O)CSC2=NCCN2)cc1,"inconclusive: 14.1 µM [inhibitor, single point]"
20,CCOC(=O)C1=C(C)N=C2SCCC(=O)N2C1c1ccc(OCc2ccccc2)c(OC)c1 (stereo not drawn),"inconclusive: 12.6 µM [inhibitor, single point]"
21,Cc1ccc(C(=O)CN(C(=O)c2ccc(Cl)c(Cl)c2)N2C(=O)C3CCCCC3C2=O)cc1C (stereo not drawn),"inconclusive: 1.16 µM [inhibitor, single point]"
22,CC(=O)c1ccccc1OCCOCCOc1ccccc1C(C)=O,"inconclusive: 35.5 µM [inhibitor, single point]"
23,CCOc1ccc(/C=N/NC(=O)Nc2ccccc2)cc1,"inconclusive: 0.562 µM [activator, full curve, poor fit]"

# Compounds above that contain a carbonyl joined to an NH by a bond outside any ring:
row,SMILES,Potency
1,O=C(Nc1ccc(Cl)cc1)NC1CCCCC1Cc1ccco1 (stereo not drawn),"inconclusive: 35.5 µM [inhibitor, single point]"
2,Cc1ccc(NC(=O)CCC(=O)NNC(=O)COc2ccccc2)cc1C,inactive
3,COc1cc2c(c(OC)c1OC)-c1ccc(O)c(=O)cc1C(NC(C)=O)CC2 (stereo not drawn),"inconclusive: 1 µM [inhibitor, full curve, poor fit]"
4,O=C(CNC(=S)N(Cc1ccccc1)Cc1cccnc1)NC1CC1,inactive
5,CCCCc1nnc(NC(=O)c2ccc(N3CCCC3=O)cc2)s1,inactive
7,COc1cc(NC(=O)CCN2CCN(c3ccccc3F)CC2)cc(OC)c1,"inconclusive: 29.1 µM [inhibitor, single point]"
9,Cc1ccccc1N(C(=O)Cn1nnc(-c2cccs2)n1)C(C(=O)NCCC(C)C)c1ccco1 (stereo not drawn),"inconclusive: 15.8 µM [inhibitor, single point]"
19,Cc1ccc(NC(=O)CSC2=NCCN2)cc1,"inconclusive: 14.1 µM [inhibitor, single point]"
23,CCOc1ccc(/C=N/NC(=O)Nc2ccccc2)cc1,"inconclusive: 0.562 µM [activator, full curve, poor fit]"

# Individual results from the results shown:
# Potency, COc1ccc(C)cc1NCc1ccc([N+](=O)[O-])cc1 reads inactive
# Potency, Cc1ccc2nc(-c3cccc(S(=O)(=O)N(C)C)c3)cn2c1 reads inconclusive: 14.1 µM [inhibitor, single point]

# The results go on:

row,SMILES,Potency
1,CN(C)CCCCCN(C)Cc1cc2ccccc2o1,"inconclusive: 10 µM [inhibitor, partial curve, poor fit]"
2,O=C(CCc1nnc(-c2ccc(-c3ccccc3)cc2)o1)NCCc1ccccn1,"inconclusive: 11.2 µM [inhibitor, partial curve]"
3,Cc1ccc(OCC(=O)N(C)CC(=O)Nc2ccc(N3CCOCC3)cc2)cc1,inactive
4,COC(=O)c1sccc1-c1ccc(C(=O)Nc2cccnc2)o1,"inconclusive: 29.1 µM [inhibitor, single point]"
5,CC(=O)Nc1ccc(/C(C)=N/NC(=O)c2ccc(CN3CCOCC3)cc2)cc1,"inconclusive: 1.41 µM [activator, full curve, poor fit]"
6,O=C(Cc1cccs1)Nc1ccc(-c2nc3ccccc3[nH]2)cc1,"inconclusive: 4.47 µM [activator, partial curve, poor fit]"
7,S=C(c1ccc(-c2ccccc2)cc1)N1CCOCC1,"inconclusive: 35.5 µM [inhibitor, partial curve, poor fit]"
8,Cc1cc(C)cc(NC(=O)Cn2c(=O)oc3cc(S(=O)(=O)N4CCC(C)CC4)ccc32)c1,inactive
9,CCn1c(=O)n(CC)c2cc(N3CCCC3)c(NC(=O)c3ccccc3)cc21,"inconclusive: 35.5 µM [inhibitor, single point]"
10,OC(CNCc1ccccc1)Cn1ccc2ccccc21 (stereo not drawn),"inconclusive: 18.4 µM [inhibitor, single point]"
11,O=C(Nc1ccccc1N1CCOCC1)c1cccnc1Cl,inactive
12,Cc1ccc(C)c(-n2c(CNC(=O)c3ccco3)nnc2SCC(=O)N2CCc3ccccc32)c1,inactive
13,CCOc1ccc(NC(=O)C(C)N2C(=O)c3ccccc3C2=O)cc1 (stereo not drawn),inactive
14,CCOc1ccc(NC(=O)Nc2cnccn2)cc1,inactive
15,COc1cccc(CN2CCN(S(=O)(=O)c3ccc(Cl)s3)CC2)c1,"inconclusive: 8.91 µM [inhibitor, partial curve, poor fit]"
16,Cc1ccc(S(=O)(=O)N2CCN(C(=O)CNC(=O)c3ccc(Br)o3)CC2)cc1,inactive
17,O=C(Nc1nccs1)c1sc2cc(Cl)ccc2c1Cl,"inconclusive: 1.26 µM [activator, full curve]"
18,Cc1ccccc1CNCCCSc1ncccn1,"inconclusive: 35.5 µM [activator, single point]"
19,O=C(CSc1nnc2c(Cl)cc(C(F)(F)F)cn12)NCc1ccc(F)cc1,"inconclusive: 0.0326 µM [activator, partial curve, poor fit]"
20,Cc1cc(O)cc(O)c1C(=O)OC1(C)C(=O)C=C2C=C(C=CCO)OC=C2C1=O (stereo not drawn),"inconclusive: 2.66 µM [activator, single point]"
21,COC(=O)c1ccc(C(=O)OC)c(NC(=O)c2cc3nc(-c4ccc(C)cc4)cc(C(F)(F)F)n3n2)c1,"inconclusive: 1.41 µM [activator, partial curve, poor fit]"
22,CCCn1cnc2cc(NCc3ccccc3OCC)ccc21,inactive
23,CCn1c(C(=O)NCc2ccccc2Br)cc2oc3ccccc3c21,"inconclusive: 0.708 µM [inhibitor, full curve, poor fit]"

row,SMILES,Potency
1,CN(C)CC#CCOC(c1ccccc1)c1ccccc1,"inconclusive: 1.26 µM [activator, single point]"
2,CC(=O)c1cccc(NC(=O)Nc2ccc3c(c2)CCC3)c1,inactive
3,COc1cc(C(=O)OCC(=O)Nc2ccc(OC(F)F)cc2)cc(OC)c1OC,"inconclusive: 35.5 µM [inhibitor, single point]"
4,O=C(NCSC1=NCCS1)c1ccccc1,inactive
5,Cc1ccc(C2C(C(=O)c3sc(C)nc3C)=C(O)C(=O)N2CCN(C)C)o1 (stereo not drawn),inactive
6,Cc1ccc(C)c(S(=O)(=O)NCC(c2ccco2)N2CCc3ccccc3C2)c1 (stereo not drawn),"inconclusive: 22.4 µM [inhibitor, single point]"
7,CC(=O)c1cccc(NS(=O)(=O)c2cc3c(cc2C)NC(=O)CO3)c1,inactive
8,CC(=O)Oc1ccc(OC(C)=O)c(SCCCCCN2CCOCC2)c1,active: 16.4 µM
9,NC(=O)C1CCN(c2oc(-c3ccccc3)nc2S(=O)(=O)c2ccc(Br)cc2)CC1,inactive
10,COc1cc(/C=N/Nc2nn3cnnc3c3ccccc23)ccc1O,inactive
11,CCOc1cc(CNCCCN2CCOCC2)cc(Br)c1OCc1ccccc1Cl,"inconclusive: 8.91 µM [inhibitor, partial curve, poor fit]"
12,COC(=O)c1ccc(NC(=O)c2ccccc2)o1,"inconclusive: 8.91 µM [activator, partial curve, poor fit]"
13,CCC(N=c1cc(-c2ccc(OC)c(OC)c2)oc2ccc(C)cc12)C(=O)O (stereo not drawn),"inconclusive: 29.1 µM [activator, partial curve, poor fit]"
14,COc1cc2[nH]c(C(=O)NCc3ccccc3)cc2c(OC)c1OC,"inconclusive: 6.31 µM [inhibitor, single point]"
15,Cc1cccc(-c2n[nH]c(=S)n2Cc2ccccc2)c1,"inconclusive: 1.26 µM [activator, single point]"
16,COC1C(C)OC(OC2CC(C)(O)Cc3cc4c(c(O)c32)C(=O)c2c(O)cc3c(c2C4=O)OC2OC3(C)C(O)C(N(C)C)C2O)C(OC)C1(C)OC (stereo not drawn),"inconclusive: 25.1 µM [inhibitor, single point]"
17,COCCn1nnnc1C(c1cccs1)N1CCN(c2cccc(C(F)(F)F)c2)CC1 (stereo not drawn),"inconclusive: 20 µM [inhibitor, partial curve, poor fit]"
18,O=C(CSc1nc(-c2ccco2)cc(C(F)(F)F)n1)Nc1ccccc1C(F)(F)F,"inconclusive: 16.4 µM [inhibitor, partial curve, poor fit]"
19,Cc1[nH]nc(-c2ccc(O)cc2O)c1-c1nc2ccccc2s1,"inconclusive: 1 µM [inhibitor, full curve, poor fit]"
20,Cc1ccc(C)c(N2CCN(C(=O)CCCCn3c(=O)[nH]c4ccccc4c3=O)CC2)c1,"inconclusive: 6.51 µM [inhibitor, full curve, poor fit]"
21,COc1ccc(-c2cc(C(=O)OCC(=O)N(C)C)c3ccccc3n2)cc1,"inconclusive: 10 µM [inhibitor, partial curve, poor fit]"
22,CC(C)CCNc1ncnc2c1nnn2Cc1ccccc1,"inconclusive: 2.51 µM [activator, full curve, poor fit]"

# From PubChem BioAssay AID540276 (National Center for Advancing Translational Sciences (NCATS), 2011)
